No constants are given. Whether binding was seen depends on the method and setting. For some of these results: In cells and extracts the contact can be indirect. For some of these results: Sequences can lack the tags named with a protein. Some binding calls cover weakened binding; strength is not graded here.

Sequences of proteins named here, by UniProt entry; tags and fusion partners are left off.
UniProt P25858: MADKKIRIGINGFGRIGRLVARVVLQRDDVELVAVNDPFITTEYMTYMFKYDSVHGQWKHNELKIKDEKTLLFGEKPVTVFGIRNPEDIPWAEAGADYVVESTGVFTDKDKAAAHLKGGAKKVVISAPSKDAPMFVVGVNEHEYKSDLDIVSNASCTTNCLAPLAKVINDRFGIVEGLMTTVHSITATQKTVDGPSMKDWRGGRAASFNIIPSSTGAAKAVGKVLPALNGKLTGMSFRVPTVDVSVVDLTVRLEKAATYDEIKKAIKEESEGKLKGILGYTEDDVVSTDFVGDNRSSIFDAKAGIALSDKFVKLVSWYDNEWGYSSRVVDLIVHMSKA
UniProt P48491: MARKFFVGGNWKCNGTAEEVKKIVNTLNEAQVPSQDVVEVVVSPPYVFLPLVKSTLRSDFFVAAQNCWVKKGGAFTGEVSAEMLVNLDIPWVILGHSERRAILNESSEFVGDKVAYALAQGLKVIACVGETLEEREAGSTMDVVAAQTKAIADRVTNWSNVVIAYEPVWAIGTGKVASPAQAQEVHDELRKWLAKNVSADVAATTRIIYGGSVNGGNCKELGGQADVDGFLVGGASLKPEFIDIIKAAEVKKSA
UniProt Q42525: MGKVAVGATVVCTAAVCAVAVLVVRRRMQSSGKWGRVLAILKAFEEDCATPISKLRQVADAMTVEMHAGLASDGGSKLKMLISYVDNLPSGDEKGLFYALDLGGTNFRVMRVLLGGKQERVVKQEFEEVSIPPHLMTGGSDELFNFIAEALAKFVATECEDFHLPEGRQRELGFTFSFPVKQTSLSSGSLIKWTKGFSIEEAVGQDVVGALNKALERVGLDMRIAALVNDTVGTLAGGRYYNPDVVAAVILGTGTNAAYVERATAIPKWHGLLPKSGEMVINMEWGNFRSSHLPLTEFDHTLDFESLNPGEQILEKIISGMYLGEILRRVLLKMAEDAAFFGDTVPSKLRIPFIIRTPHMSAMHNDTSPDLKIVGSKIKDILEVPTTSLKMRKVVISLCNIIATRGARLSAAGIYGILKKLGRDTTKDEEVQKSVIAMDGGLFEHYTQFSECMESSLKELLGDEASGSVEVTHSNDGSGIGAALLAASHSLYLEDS

Test [1] has as its target cytosolic phosphorylating glyceraldehyde-3-phosphate dehydrogenase 1 (GAPC1), BiFC fusion (Arabidopsis) (UniProt P25858). In words: split reporter.
Test [2] deals with cytosolic triose phosphate isomerase (CyTPI), BiFC fusion (Arabidopsis) (UniProt P48491). In words: split reporter.
The target in test [3] is T1, phosphoglycerate kinase 3 (PGK3), BiFC fusion (Arabidopsis) (UniProt Q9SAJ4).
T1 sequence: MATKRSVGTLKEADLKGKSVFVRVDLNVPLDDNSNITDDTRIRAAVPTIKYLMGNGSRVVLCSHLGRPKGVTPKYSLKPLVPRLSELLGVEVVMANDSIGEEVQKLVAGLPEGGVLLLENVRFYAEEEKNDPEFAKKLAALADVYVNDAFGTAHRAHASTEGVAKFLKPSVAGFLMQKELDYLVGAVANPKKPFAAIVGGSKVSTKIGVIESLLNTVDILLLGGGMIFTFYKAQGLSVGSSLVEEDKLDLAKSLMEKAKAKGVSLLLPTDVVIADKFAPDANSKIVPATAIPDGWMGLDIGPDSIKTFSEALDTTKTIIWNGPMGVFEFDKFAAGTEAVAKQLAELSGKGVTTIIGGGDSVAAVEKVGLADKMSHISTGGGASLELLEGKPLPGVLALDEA
In words: split reporter.

The target in test [4] is T2, ATG13a, BiFC fusion (Arabidopsis) (UniProt Q9SCK0).
T2 sequence: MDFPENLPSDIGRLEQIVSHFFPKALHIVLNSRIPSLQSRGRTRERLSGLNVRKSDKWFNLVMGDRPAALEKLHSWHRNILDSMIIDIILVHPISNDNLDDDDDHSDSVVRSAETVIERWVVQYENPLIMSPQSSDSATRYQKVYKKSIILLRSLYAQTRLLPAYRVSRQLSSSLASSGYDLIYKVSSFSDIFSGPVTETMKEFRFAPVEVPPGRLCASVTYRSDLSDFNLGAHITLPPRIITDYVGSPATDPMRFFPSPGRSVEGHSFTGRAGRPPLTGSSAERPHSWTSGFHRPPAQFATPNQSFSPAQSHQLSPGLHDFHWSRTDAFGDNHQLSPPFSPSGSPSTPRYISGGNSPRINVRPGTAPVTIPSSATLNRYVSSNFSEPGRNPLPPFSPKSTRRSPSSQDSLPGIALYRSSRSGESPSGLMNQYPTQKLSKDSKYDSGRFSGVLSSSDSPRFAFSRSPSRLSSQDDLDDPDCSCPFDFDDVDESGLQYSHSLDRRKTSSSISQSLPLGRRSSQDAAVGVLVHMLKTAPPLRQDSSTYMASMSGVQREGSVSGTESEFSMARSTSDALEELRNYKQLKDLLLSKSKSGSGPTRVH
In words: split reporter.

Test [5] has as its target T3, ATG13b, BiFC fusion (Arabidopsis) (UniProt F4J8V5).
T3 sequence: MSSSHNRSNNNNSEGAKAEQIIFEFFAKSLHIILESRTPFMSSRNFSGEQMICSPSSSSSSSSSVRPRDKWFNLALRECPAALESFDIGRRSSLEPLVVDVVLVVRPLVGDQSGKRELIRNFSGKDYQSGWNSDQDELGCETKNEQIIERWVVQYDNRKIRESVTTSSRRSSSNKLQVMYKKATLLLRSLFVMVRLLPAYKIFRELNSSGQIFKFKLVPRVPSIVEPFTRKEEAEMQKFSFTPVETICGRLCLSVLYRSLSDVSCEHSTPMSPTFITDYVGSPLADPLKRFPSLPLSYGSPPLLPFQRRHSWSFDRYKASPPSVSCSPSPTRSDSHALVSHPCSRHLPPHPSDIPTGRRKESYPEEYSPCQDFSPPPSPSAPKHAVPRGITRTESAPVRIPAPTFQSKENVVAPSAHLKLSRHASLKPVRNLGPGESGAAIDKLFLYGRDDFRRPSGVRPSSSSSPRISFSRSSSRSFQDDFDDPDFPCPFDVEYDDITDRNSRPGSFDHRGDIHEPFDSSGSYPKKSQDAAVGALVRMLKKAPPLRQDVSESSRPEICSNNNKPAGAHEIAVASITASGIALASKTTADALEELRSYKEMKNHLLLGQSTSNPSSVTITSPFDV
In words: split reporter.

Test [6] deals with T4, ATG101, yeast two-hybrid fusion (Arabidopsis) (UniProt F4K265).
T4 sequence: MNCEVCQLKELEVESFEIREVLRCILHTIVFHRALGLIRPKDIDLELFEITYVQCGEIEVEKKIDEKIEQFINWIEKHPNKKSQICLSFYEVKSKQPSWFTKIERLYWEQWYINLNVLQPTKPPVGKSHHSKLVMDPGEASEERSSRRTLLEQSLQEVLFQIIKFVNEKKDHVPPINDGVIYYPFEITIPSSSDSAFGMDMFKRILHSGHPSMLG
In words: two-hybrid.

Test [7] deals with GAPC1, yeast two-hybrid fusion (Arabidopsis) (UniProt P25858). In words: two-hybrid.
The target in test [8] is HXK1, yeast two-hybrid fusion (Arabidopsis) (UniProt Q42525). In words: two-hybrid.
Test [9] has as its target T5, PGK3, yeast two-hybrid fusion (Arabidopsis) (UniProt Q9SAJ4).
T5 sequence: T1 sequence
In words: two-hybrid.

Test [10] addresses cytosolic triose phosphate isomerase (CyTPI), yeast two-hybrid fusion (Arabidopsis) (UniProt P48491). In words: two-hybrid.

In the case of “Hexokinase 1 (HXK1), BiFC fusion (from UniProt Q42525 1-496) (enzyme)”, the binding result in [1], in test [2], in [3], in test [4] and in test [5] was “no binding” throughout.

In the case of “cytosolic triose phosphate isomerase (CyTPI), yeast two-hybrid fusion (from UniProt P48491 1-254) (enzyme)”, the binding result in test [6] is “binds”; in test [7], “binds”; in test [8], “no binding”; in [9] it was “binds”; in test [10] it was “binds”.

The values above are taken from paper doi:10.1101/2022.07.12.499818.
